Values from PubChem BioAssay AID1259254 (NCATS, 2017).
The deposit covers about 59,000 reagents; below is an unselected part. About 1,550 of them (2.6%) count as active. 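G2 share is only a proxy for re-replication; each gene was hit by three separate siRNAs, and active genes were retested.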 The numbers tell different reagents against one gene apart. Not all columns of the deposit are shown. The record does not give: the amount of reagent.

Screen: 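Gene knock-downs that lead to re-replication, shown by excess G2 DNA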 (primary screen)
Cell system: human HCT116 colorectal cancer cells
Reagents: single siRNA against human genes
Time to read-out: 3 days
Detection: 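Imaged Hoechst DNA stain sorts each cell into a cycle phase by DNA amount; per plate, G2 fraction set to 0% for non-targeting and 100% for GMNN siRNA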
Scale: G2 robust z-score: higher = more G2 cells, more excess DNA replication
Rule for the call: 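An siRNA counts as active if its G2 robust z-score lies at least 5 MADs above the screen median; here such calls match roughly 38% of GMNN control or more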

For AGPAT4 (1-acylglycerol-3-phosphate O-acyltransferase 4) #1, what does the deposit list?
G2 robust z-score: -0.249; Call: inactive

For AGPAT4 (1-acylglycerol-3-phosphate O-acyltransferase 4) #2, how do the results read?
G2 robust z-score: -0.314; Call: inactive

With AGPAT4 (1-acylglycerol-3-phosphate O-acyltransferase 4) #3, what was measured?
G2 robust z-score: -1.44; Call: inactive

Which result is listed for MYADML2 (myeloid associated differentiation marker like 2) #1?
G2 robust z-score: 3.38; Call: inactive

For MYADML2 (myeloid associated differentiation marker like 2) #2, what was measured?
G2 robust z-score: 0.947; Call: inactive

What did the screen give for MYADML2 (myeloid associated differentiation marker like 2) #3?
G2 robust z-score: -0.00915; Call: inactive

What is on record for PRELID3BP10 (PRELI domain containing 3B pseudogene 10) #1?
G2 robust z-score: -0.638; Call: inactive

With PRELID3BP10 (PRELI domain containing 3B pseudogene 10) #2, what does the deposit list?
G2 robust z-score: -0.483; Call: inactive

For PRELID3BP10 (PRELI domain containing 3B pseudogene 10) #3, what does the deposit list?
G2 robust z-score: 4.29; Call: inactive

What did the screen give for PRELID3BP10 (PRELI domain containing 3B pseudogene 10) #4?
G2 robust z-score: -0.653; Call: inactive

With PRELID3BP10 (PRELI domain containing 3B pseudogene 10) #5, what does the deposit list?
G2 robust z-score: 0.8; Call: inactive

How did the screen score PRELID3BP10 (PRELI domain containing 3B pseudogene 10) #6?
G2 robust z-score: 0.705; Call: inactive

Which result is listed for LDB3 (LIM domain binding 3) #1?
G2 robust z-score: 0.0738; Call: inactive

With LDB3 (LIM domain binding 3) #2, what does the deposit list?
G2 robust z-score: 0.0439; Call: inactive

With LDB3 (LIM domain binding 3) #3, what does the deposit list?
G2 robust z-score: -1.07; Call: inactive

Reprinted from the entries so far (4 entries):
MYADML2 (myeloid associated differentiation marker like 2) #3 — G2 robust z-score: -0.00915; Call: inactive
PRELID3BP10 (PRELI domain containing 3B pseudogene 10) #1 — G2 robust z-score: -0.638; Call: inactive
PRELID3BP10 (PRELI domain containing 3B pseudogene 10) #2 — G2 robust z-score: -0.483; Call: inactive
PRELID3BP10 (PRELI domain containing 3B pseudogene 10) #3 — G2 robust z-score: 4.29; Call: inactive

The listing continues.
For UBALD2 (UBA like domain containing 2) #1, what does the deposit list?
G2 robust z-score: -0.475; Call: inactive

With UBALD2 (UBA like domain containing 2) #2, what does the deposit list?
G2 robust z-score: 0.248; Call: inactive

What is on record for UBALD2 (UBA like domain containing 2) #3?
G2 robust z-score: 0.396; Call: inactive

What is on record for SLX4IP (SLX4 interacting protein) #1?
G2 robust z-score: 3.2; Call: inactive

With SLX4IP (SLX4 interacting protein) #2, what does the deposit list?
G2 robust z-score: -0.538; Call: inactive

Which result is listed for SLX4IP (SLX4 interacting protein) #3?
G2 robust z-score: -0.256; Call: inactive

What is on record for TRAF1 (TNF receptor associated factor 1) #1?
G2 robust z-score: 0.592; Call: inactive

For TRAF1 (TNF receptor associated factor 1) #2, what does the deposit list?
G2 robust z-score: -0.399; Call: inactive

How did the screen score TRAF1 (TNF receptor associated factor 1) #3?
G2 robust z-score: -0.449; Call: inactive
